According to article PMC5645524:
Results are given in words; binding and its absence hold for the method and conditions named. Some entries that bind do so weakly or less than the wild type.

Sequences of proteins named here, by UniProt entry; tags and fusion partners are left off. A change or cut given only in a name is not applied to a line headed by its entry.
UniProt P12883: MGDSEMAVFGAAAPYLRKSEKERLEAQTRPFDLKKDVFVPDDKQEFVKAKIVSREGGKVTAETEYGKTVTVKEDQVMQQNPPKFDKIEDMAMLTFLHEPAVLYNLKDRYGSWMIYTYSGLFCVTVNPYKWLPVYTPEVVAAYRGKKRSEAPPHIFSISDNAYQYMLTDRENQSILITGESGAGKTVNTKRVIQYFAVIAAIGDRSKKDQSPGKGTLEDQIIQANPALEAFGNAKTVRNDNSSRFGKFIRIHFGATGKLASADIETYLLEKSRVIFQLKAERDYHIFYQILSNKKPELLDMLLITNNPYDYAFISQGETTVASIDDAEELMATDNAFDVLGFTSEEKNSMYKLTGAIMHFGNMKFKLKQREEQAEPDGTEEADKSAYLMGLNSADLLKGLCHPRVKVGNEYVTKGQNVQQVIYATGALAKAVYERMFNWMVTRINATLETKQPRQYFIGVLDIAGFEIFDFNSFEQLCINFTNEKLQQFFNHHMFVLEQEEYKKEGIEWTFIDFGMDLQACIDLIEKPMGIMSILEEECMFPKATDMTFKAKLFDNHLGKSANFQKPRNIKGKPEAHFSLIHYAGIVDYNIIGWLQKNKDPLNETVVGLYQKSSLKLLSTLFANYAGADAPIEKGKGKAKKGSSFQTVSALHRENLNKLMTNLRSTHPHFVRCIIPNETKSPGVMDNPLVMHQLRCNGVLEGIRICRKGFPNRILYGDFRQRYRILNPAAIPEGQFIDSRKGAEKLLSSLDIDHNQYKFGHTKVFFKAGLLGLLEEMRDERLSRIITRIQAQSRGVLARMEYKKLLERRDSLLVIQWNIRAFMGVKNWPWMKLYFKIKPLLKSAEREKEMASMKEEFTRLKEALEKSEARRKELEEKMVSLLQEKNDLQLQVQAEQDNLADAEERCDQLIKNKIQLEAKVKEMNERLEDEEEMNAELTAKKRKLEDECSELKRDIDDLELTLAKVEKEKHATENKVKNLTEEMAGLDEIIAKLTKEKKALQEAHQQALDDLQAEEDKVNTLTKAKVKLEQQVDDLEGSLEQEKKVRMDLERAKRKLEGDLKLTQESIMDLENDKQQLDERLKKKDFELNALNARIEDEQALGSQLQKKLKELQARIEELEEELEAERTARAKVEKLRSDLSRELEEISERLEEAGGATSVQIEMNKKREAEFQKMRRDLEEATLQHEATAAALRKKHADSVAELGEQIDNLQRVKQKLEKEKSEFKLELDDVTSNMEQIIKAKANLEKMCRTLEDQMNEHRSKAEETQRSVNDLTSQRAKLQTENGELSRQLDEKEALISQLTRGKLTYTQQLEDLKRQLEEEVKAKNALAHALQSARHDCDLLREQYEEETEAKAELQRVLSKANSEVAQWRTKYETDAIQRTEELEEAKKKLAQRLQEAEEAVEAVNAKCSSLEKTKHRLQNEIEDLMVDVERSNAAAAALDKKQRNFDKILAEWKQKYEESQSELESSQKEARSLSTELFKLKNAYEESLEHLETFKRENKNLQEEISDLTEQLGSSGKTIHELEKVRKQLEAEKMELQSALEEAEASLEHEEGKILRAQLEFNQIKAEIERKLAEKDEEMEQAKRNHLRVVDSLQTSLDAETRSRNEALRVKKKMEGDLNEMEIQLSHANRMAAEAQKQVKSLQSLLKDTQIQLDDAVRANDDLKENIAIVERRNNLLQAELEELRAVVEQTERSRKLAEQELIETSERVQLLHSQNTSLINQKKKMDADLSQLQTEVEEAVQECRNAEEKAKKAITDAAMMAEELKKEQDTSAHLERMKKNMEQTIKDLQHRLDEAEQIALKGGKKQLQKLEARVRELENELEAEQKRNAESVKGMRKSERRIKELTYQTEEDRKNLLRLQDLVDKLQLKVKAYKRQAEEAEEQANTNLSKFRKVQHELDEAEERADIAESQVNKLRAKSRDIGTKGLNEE
UniProt P10916: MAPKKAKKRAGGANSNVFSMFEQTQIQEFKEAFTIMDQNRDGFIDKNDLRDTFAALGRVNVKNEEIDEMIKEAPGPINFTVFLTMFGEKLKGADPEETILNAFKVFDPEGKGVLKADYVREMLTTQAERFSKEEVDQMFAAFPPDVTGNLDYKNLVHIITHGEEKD
UniProt P05976: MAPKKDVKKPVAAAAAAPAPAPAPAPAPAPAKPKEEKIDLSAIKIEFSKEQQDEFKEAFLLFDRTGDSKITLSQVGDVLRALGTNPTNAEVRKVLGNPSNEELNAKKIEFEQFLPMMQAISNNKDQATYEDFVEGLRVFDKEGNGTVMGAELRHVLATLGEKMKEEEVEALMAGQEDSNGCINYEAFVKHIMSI

Biological target: Native ventricular myosin in human ventricular myocytes (human (endogenous in ventricular myocytes)) (UniProt P12883+P10916)
Assay: exchange of labelled light chain into myocyte myosin, read by fluorescence anisotropy and lifetime imaging; 5 nM labelled LC with 2 mg/ml freshly prepared myocytes in exchange solution (15 mM KCl, 5 mM EDTA, 5 mM DTT, 10 mM KH2PO4, 5 mM ATP, 1 mM TFP, 10 mM imidazole, pH 7), 30 C, 10 min; only the binder purified

- binding: binds
Substance: Recombinant human essential light chain G174C (G174C-hLC), labelled with SeTau-647 maleimide (from UniProt P05976 1-194)
